{"sequences": {"note": "Sequences of proteins named here, by UniProt entry; tags and fusion partners are left off. A change or cut given only in a name is not applied to a line headed by its entry.", "UniProt P04050": "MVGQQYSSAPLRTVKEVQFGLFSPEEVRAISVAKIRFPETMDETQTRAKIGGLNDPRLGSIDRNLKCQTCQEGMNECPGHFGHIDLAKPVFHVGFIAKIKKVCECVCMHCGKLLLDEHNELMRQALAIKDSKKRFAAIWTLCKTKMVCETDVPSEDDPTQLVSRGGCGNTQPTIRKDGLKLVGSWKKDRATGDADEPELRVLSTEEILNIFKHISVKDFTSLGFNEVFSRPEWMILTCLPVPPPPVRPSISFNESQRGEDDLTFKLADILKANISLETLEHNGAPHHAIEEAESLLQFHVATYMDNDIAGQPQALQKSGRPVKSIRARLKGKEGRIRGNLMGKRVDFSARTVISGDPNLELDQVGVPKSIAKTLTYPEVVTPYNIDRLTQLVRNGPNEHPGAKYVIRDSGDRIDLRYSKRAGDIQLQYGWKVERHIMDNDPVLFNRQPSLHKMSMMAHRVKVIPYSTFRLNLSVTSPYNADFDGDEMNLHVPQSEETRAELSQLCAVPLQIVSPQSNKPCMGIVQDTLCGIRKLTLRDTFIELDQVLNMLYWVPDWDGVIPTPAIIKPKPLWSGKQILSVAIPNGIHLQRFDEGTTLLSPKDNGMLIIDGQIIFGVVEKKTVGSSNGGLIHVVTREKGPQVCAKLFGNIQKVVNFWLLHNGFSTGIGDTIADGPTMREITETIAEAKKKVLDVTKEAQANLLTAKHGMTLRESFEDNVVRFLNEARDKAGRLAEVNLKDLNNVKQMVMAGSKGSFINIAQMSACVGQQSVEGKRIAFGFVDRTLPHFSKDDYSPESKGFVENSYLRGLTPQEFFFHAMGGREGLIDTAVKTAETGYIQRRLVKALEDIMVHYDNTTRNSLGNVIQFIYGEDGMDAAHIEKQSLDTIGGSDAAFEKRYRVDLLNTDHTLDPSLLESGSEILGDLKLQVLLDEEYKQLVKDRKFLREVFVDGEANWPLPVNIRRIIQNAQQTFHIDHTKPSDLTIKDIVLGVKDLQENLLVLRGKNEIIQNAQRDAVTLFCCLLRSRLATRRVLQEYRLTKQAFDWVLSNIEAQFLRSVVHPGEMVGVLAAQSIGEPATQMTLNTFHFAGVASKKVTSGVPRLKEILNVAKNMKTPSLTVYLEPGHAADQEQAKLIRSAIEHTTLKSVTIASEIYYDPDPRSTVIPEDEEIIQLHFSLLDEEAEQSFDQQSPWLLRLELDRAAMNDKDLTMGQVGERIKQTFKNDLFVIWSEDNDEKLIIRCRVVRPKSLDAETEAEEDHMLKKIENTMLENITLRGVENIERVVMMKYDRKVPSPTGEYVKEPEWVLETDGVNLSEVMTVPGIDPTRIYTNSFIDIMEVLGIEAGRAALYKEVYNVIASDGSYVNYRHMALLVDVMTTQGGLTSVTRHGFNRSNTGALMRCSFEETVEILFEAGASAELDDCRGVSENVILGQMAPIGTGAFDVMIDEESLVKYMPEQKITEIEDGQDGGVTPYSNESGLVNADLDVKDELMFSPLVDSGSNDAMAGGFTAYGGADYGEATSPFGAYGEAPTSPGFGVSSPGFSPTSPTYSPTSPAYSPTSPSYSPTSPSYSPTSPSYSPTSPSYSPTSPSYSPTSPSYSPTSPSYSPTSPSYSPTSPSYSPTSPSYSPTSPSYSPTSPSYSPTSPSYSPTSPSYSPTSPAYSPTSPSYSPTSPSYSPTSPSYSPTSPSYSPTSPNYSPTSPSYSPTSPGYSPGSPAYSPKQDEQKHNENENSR", "UniProt Q12306": "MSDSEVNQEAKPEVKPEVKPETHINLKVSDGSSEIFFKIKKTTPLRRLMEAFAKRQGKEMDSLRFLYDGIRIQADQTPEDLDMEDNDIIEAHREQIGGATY"}, "source": "paper PMC8505008", "molecules": {"B1": {"name": "Tfg1-HA (large subunit of TFIIF with a 6xHA tag) (protein, UniProt P41895 1-735)", "chain": "MSRRNPPGSRNGGGPTNASPFIKRDRMRRNFLRMRMGQNGSNSSSPGVPNGDNSRGSLVKKDDPEYAEEREKMLLQIGVEADAGRSNVKVKDEDPNEYNEFPLRAIPKEDLENMRTHLLKFQSKKKINPVTDFHLPVRLHRKDTRNLQFQLTRAEIVQRQKEISEYKKKAEQERSTPNSGGMNKSGTVSLNNTVKDGSQTPTVDSVTKDNTANGVNSSIPTVTGSSVPPASPTTVSAVESNGLSNGSTSAANGLDGNASTANLANGRPLVTKLEDAGPAEDPTKVGMVKYDGKEVTNEPEFEEGTMDPLADVAPDGGGRAKRGNLRRKTRQLKVLDENAKKLRFEEFYPWVMEDFDGYNTWVGSYEAGNSDSYVLLSVEDDGSFTMIPADKVYKFTARNKYATLTIDEAEKRMDKKSGEVPRWLMKHLDNIGTTTTRYDRTRRKLKAVADQQAMDEDDRDDNSEVELDYDEEFADDEEAPIIDGNEQENKESEQRIKKEMLQANAMGLRDEEAPSENEEDELFGEKKIDEDGERIKKALQKTELAALYSSDENEINPYLSESDIENKENESPVKKEEDSDTLSKSKRSSPKKQQKKATNAHVHKEPTLRVKSIKNCVIILKGDKKILKSFPEGEWNPQTTKAVDSSNNASNTVPSPIKQEEGLNSTVAEREETPAPTITEKDIIEAIGDGKVNIKEFGKFIRRKYPGAENKKLMFAIVKKLCRKVGNDHMELKKE"}, "B2": {"name": "Tfg1-K60,61R-HA (protein, UniProt P41895 1-735)", "chain": "B1 chain with K60R, K61R, N462Q"}}, "key": {"[1]": {"target": "T1, Tfg1-HA (large subunit of TFIIF with a 6xHA tag) (budding yeast) (UniProt P41895)", "T1 sequence": "B1 chain", "experiment": "co-IP; HA IP (Protein G agarose, overnight) from non-denaturing yeast lysates (50 mM Tris-HCl pH 8, 150 mM NaCl, 0.1% NP40, PMSF, NEM); Rpb1 (8WG16) and HA immunoblots; also done in ulp1-mt (I615N) and ULP1 parental backgrounds, with significantly less Rpb1 in ulp1-mt"}, "[2]": {"target": "T2, Tfg1-K60,61R-HA (budding yeast) (UniProt P41895)", "T2 sequence": "B1 chain with K60R, K61R, N462Q", "experiment": "co-IP; HA IP (Protein G agarose, overnight) from non-denaturing yeast lysates (50 mM Tris-HCl pH 8, 150 mM NaCl, 0.1% NP40, PMSF, NEM); Rpb1 (8WG16) and HA immunoblots; also done in ulp1-mt (I615N) and ULP1 parental backgrounds, with significantly less Rpb1 in ulp1-mt"}, "[3]": {"target": "Rpb1, the large subunit of RNA polymerase II (budding yeast (endogenous in W303-derived strains)) (UniProt P04050)", "experiment": "co-IP; Rpb1 (8WG16) IP (Protein G agarose, overnight) from non-denaturing yeast lysates (50 mM Tris-HCl pH 8, 150 mM NaCl, 0.1% NP40, PMSF, NEM); HA and Rpb1 immunoblots; also done in ulp1-mt (I615N) and ULP1 parental backgrounds, with dramatically less Tfg1-HA in ulp1-mt"}}, "note": "Positions count from the first letter of the chain named. Results are given in words; binding and its absence hold for the method and conditions named. Binding seen in cells or lysates may run through a third protein. Some entries that bind do so weakly or less than the wild type. Where a sequence is shown, tags or fusion partners need not be part of it."}
{"molecule": "Rpb1, the large subunit of RNA polymerase II (from UniProt P04050 1-1733)", "values": [{"measurement": "binding", "setting": "[1]", "value": "binds"}, {"measurement": "binding", "setting": "[2]", "value": "binds"}]}
{"molecule": "SUMO-Tfg1-HA (Tfg1-HA with a non-cleavable N-terminal fusion with the yeast SUMO peptide) (from UniProt Q12306 1-96; P41895 1-735)", "values": [{"measurement": "binding", "setting": "[3]", "value": "binds"}]}
{"molecule": "B1", "values": [{"measurement": "binding", "setting": "[3]", "value": "binds"}]}
{"molecule": "B2", "values": [{"measurement": "binding", "setting": "[3]", "value": "binds"}]}
